Results from PubChem BioAssay AID485298 (National Center for Advancing Translational Sciences (NCATS), 2010).
The whole screen tested about 320,000 compounds, of which about 740 (0.23%) were called active. Inconclusive results, whose numbers are uncertain, are shown with a selection of clear calls. The call rests on the fitted dose curve; in most records, active means well fitted activation curve with a large enough effect; inconclusive means small, poorly fitted or top-dose-only effect; inactive means no such curve, though single readings can be large or run the other way. Potencies of inconclusive entries are doubtful fits and often do not repeat.
Potency means the concentration at half of the fitted maximal effect.

Experiment: qHTS Assay for Small Molecule Inhibitors of Mitochondrial Division or Activators of Mitochondrial Fusion; further: nearly all actives have a fitted effect of over 45% in size
Settings: S. cerevisiae fusion-defective mutant growth rescue, CellTiterGlo 48 h; series mostly up to 46.1 µM
Outline: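 Read-out: ATP-based luminescence (CellTiterGlo, 10 min ambient) reporting growth of fusion-defective ts yeast after 48 hours at 37C on glycerol/ethanol YPEG medium in the presence of compound.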
In the case of COc1ccc(Cl)cc1C(=O)CSc1nnnn1C1CCCCC1, the Potency is reported as inconclusive: 12.6 µM [activator, single point].
For COc1cc(CNc2cccc3[nH]c(C(F)(F)F)nc23)cc(OC)c1, the Potency was inconclusive: 31.6 µM [activator, partial curve].
With CCc1nc2c(c(=O)c3ccccc3n2C)c(=O)n1C1CCCCCC1 the Potency was inconclusive: 11.2 µM [activator, partial curve].
In the case of Cc1ccc(-c2noc(C3CCCN(C(=O)c4ccc(Cl)cc4)C3)n2)o1 (stereo unspecified), the Potency is reported as inconclusive: 14.1 µM [activator, partial curve].
In the case of COc1ccc(/C=C2\Sc3ccc(C(=O)N4CCN(Cc5ccccc5)CC4)cc3N(C)C2=O)cc1OC, the Potency is reported as inconclusive: 11.2 µM [activator, partial curve].
With Cc1ccc(S(=O)(=O)N(C)CC(=O)NCCc2c[nH]c3ccccc23)cc1 the Potency was inconclusive: 35.5 µM [activator, partial curve].
With Cc1ccc(NC(=O)C(C)S)cc1 (stereo unspecified) the Potency was inconclusive: 35.5 µM [activator, single point].
In the case of Cc1cccc(OCCn2c(=S)[nH]c3ccccc32)c1, the Potency is reported as inconclusive: 15.8 µM [activator, single point].
With CCOC(=O)C1(CC2CCCCO2)CCN(S(=O)(=O)c2ccc(OC)cc2)CC1 (stereo unspecified) the Potency was inconclusive: 12.6 µM [activator, partial curve].
For Cc1cccc(OCC(=O)NCC(=O)N/N=C/c2cc(Br)ccc2OCc2ccccc2)c1, the Potency was inconclusive: 31.6 µM [activator, single point].
With CSc1ccc(NC(=O)c2cccnc2)cc1C#N the Potency was “inactive”.
With Cc1cc(Cl)ccc1NC(=S)NCc1ccccc1Cl the Potency was “inactive”.
In the case of C/C(=N\NC(=S)NCCc1ccccc1)c1ccc(C#N)cc1, the Potency is reported as “inactive”.
For Cc1ccc2sc(NNC(=O)c3cc(=O)c4ccccc4o3)nc2c1C, the Potency was “inactive”.
In the case of COc1ccccc1/C=N/NC(=O)c1ccc(-c2ccccc2)cc1, the Potency is reported as “inactive”.
In the case of OCCSc1nc(-c2ccccc2)nc2ccc(F)cc12, the Potency is reported as inconclusive: 20 µM [activator, single point].
In the case of Clc1ccc(-c2nnc(C3CCCCC3)o2)cc1, the Potency is reported as inconclusive: 35.5 µM [activator, single point].
For Cc1ccc(OCCNC(=O)C(=O)NCc2ccco2)cc1, the Potency was “inactive”.
With Cc1ccc(-n2nc3c(=O)n(CCCC(=O)NCC(C)c4ccccc4)nc(C)c3c2C)cc1 (stereo unspecified) the Potency was inconclusive: 3.98 µM [activator, single point].
In the case of Cc1ccc(C(=O)NCc2ccco2)cc1[N+](=O)[O-], the Potency is reported as “inactive”.
In the case of Cc1ccccc1OCC(=O)Nc1ccc(N2CCN(C)CC2)c(Cl)c1, the Potency is reported as “inactive”.
In the case of CCOc1cccc(C(=O)NC(=S)Nc2cccc(C)c2)c1, the Potency is reported as “inactive”.
For c1ccc(C(c2ccccc2)N2CCN(Cc3nnnn3C3CCCC3)CC2)cc1, the Potency was inconclusive: 12.6 µM [activator, partial curve].
In the case of CCCNc1c(NS(=O)(=O)c2ccc(Br)cc2)c(=O)oc2ccccc12, the Potency is reported as active: 8.91 µM.
For Cc1ccc2ccc3ccc(C)nc3c2n1, the Potency was “inactive”.
With Cc1nc(N2CCC(C)CC2)c2c(C)c(C(=O)O)sc2n1 the Potency was inconclusive: 3.98 µM [activator, single point].
For O=C(O)CNC(=S)N(Cc1ccccc1F)C1CCCCC1, the Potency was inconclusive: 6.31 µM [activator, single point].
In the case of O=C(Nc1nc2ccccc2[nH]1)C12CC3CC(CC(C3)C1)C2, the Potency is reported as inconclusive: 12.6 µM [activator, partial curve].
In the case of O=c1c2ccccc2c(C=NCCCN2CCOCC2)c(O)n1Cc1ccccc1, the Potency is reported as “inactive”.
With Cc1cccc(C(=O)OCC(=O)NCc2cccs2)c1 the Potency was “inactive”.
With CC[C@@]12C(=O)N(c3cccc(Cl)c3)C(=O)N1[C@H](c1ccc(Br)cc1)[C@@H]1C(=O)N(C(C)(C)C)C(=O)[C@@H]12 the Potency was inconclusive: 12.6 µM [activator, single point].
For Nc1ccc(-c2ccc3ccccc3n2)cc1, the Potency was inconclusive: 25.9 µM [activator, single point].
With Cc1ccccc1N1C(=S)NC2c3ccccc3OC1(C)C2C(=O)N(C)C (stereo unspecified) the Potency was inconclusive: 12.6 µM [activator, partial curve].
With COC(=O)[C@@]12CCCCN1[C@H](c1ccc(-c3ccccc3)cc1)[C@H]1C(=O)N(C)C(=O)[C@H]12 the Potency was inconclusive: 15.8 µM [activator, single point].
In the case of CCOc1ccc(C(=O)NNC2CC(=O)N(Cc3ccc(Cl)cc3)C2=O)cc1OC (stereo unspecified), the Potency is reported as “inactive”.
For COC(=O)Nc1ccc(S(=O)(=O)N2CCCC(C(=O)N3CCC(C)CC3)C2)cc1 (stereo unspecified), the Potency was inconclusive: 35.5 µM [activator, single point].
With Cc1nn(Cc2ccc(Cl)cc2Cl)c(C)c1NC(=O)c1ccc(COc2cc(Cl)ccc2Cl)o1 the Potency was “inactive”.
With Cn1c(-c2ccccc2F)cc2onc(-c3ccccc3)c2c1=O the Potency was inconclusive: 11.2 µM [activator, single point].
For CCOc1ccc2nc(SCC(=O)N(C)C)[nH]c2c1, the Potency was “inactive”.
In the case of CC(=O)NCc1ccc(C(=O)CCl)cc1, the Potency is reported as inconclusive: 20 µM [activator, partial curve].
For CC(c1ccco1)N(C(=O)c1ccccc1NS(=O)(=O)c1ccc(Cl)c([N+](=O)[O-])c1)c1ccccn1 (stereo unspecified), the Potency was inconclusive: 31.6 µM [activator, single point].
For O=C1C=C(c2ccnc3cc(Cl)ccc23)C[C@@H](c2ccc3c(c2)OCO3)C1, the Potency was inconclusive: 7.94 µM [activator, single point].
In the case of CCn1c2ccccc2c2cc(NC(C)=O)ccc21, the Potency is reported as “inactive”.
With O=C(N=Nc1c(O)[nH]c2ccc(Br)cc12)c1ccccc1-n1cccc1 the Potency was inconclusive: 17.8 µM [activator, single point].
For Cc1ccc(F)c(C2=CC(=O)C[C@H](c3ccc(F)cc3)C2)c1, the Potency was inconclusive: 22.4 µM [activator, single point].
For COc1ccc(NC(=O)CN(C)C(=O)c2cc(-c3ccc(OC)cc3)nc3ccccc23)cc1, the Potency was inconclusive: 22.4 µM [activator, partial curve].
